No constants are given. Whether binding was seen depends on the method and setting. In cells and extracts the contact can be indirect. Here binding means that the protein was enriched with, or labelled near, the bait; the list need not be complete. For some assays here: No binding means not detected with the bait.
What was measured:
[1] = biological target: FcαRI (CD89) Gly^248 variant with the transmembrane Arg^209Leu mutation (FcRγ-pairing-disabled) (human) (UniProt P24071); assay: affinity purification with mass spectrometry; FcαRI captured from P388D1 transfectant lysates (0.5% NP-40, 0.5% Triton X-100 in PBS) on an A59 F(ab')2 Sepharose column after preclearing; sequential elution, SDS-PAGE, silver stain; 65-kDa band identified by MALDI-MS
[2] = biological target: FcαRI (CD89) Ser^248 variant with the transmembrane Arg^209Leu mutation (FcRγ-pairing-disabled) (human) (UniProt P24071); assay: as above

Amino acid sequences for entries named in this document (tags omitted). A change or cut given only in a name is not applied to a line headed by its entry. Chains listed by the source or under a name are the forms on record and can include a tag or linker.
FcαRI (CD89) Gly^248 variant with the transmembrane Arg^209Leu mutation (FcRγ-pairing-disabled) (P24071, form named): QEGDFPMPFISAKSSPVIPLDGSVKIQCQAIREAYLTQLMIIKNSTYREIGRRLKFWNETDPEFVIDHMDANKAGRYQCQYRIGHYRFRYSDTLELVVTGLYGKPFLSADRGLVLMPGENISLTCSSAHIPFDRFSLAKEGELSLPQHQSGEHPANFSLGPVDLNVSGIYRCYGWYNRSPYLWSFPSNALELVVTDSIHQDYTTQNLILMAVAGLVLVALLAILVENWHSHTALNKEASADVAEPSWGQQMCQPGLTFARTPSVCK
FcαRI (CD89) Ser^248 variant with the transmembrane Arg^209Leu mutation (FcRγ-pairing-disabled) (P24071, form named): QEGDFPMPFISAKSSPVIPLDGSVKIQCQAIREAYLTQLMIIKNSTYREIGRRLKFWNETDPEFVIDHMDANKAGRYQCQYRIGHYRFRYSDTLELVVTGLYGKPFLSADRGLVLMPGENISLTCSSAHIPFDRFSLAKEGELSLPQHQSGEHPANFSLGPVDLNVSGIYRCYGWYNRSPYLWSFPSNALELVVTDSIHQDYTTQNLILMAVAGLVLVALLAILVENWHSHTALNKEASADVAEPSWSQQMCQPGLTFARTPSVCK

B1: murine Sab (SH3BP5) (protein, UniProt Q9Z131 1-463)
chain: MDTALKRSRSDEPAELPPPAREVEEKEEEEERMEQGLEEEEEEVDPRIQGELEKLNQSTDDINRRETELEDARQKFRSVLVEATVKLDELAKKIGKAVEDSKPYWEARRVARQAQLEAQKATQDFQRATEVLRAAKETISLAEQRLLEDDKRQFDSAWQEMLNHATQRVMEAEQTKTRSELVHKETAARYNAAMGRMRQLEKKLKRAINKSKPYFELKAKYYVQLEQLKKTVDDLQAKLALAKGEYKAALKSLERISDEIHERRRSNAMGPRGCGVGAEGSIASVENLPVSKPEPDAISVASEAFEDDNCSNLVSEDDSETQSVSSFSSGPTSPSEMPDQFPAVARPGSLDLPSPVSLSEFGMMFPILGPRSECSGASSPECEVERGDRAEGAENKMSDKANNNRVLGSTNGGSGRSRSQSSTSLESQALETRMKQLSLQCSKGRDGIIADIKMIFIFYTFLQ
Q: With B1 as the binder, how does the binding [1] read?
A: Its binding is “no binding”.

Q: And the binding [2]?
A: Its binding is “binds”.
